The exact form of at least one protein or probe is not confirmed. For some of these results: Negatives hold for the conditions tested.
Key:
[1] = molecular target: GST-HMG-C-clamp (TCF/Pangolin) (UniProt P91943); experiment: reverse EMSA (silver-stained native gel); details: 20x DNA; EMSA: 4 nM biotinylated probe, 7-20 uM protein, salt and pH not given; recombinant protein; protein details: GST
[2] = molecular target: GST-HMG (TCF/Pangolin HMG domain) (UniProt P91943); experiment: DNase I footprinting; details: 20 uM protein; footprinting: 20 uM protein, 12 nM probe; recombinant protein; protein details: GST; label: FAM or HEX; probe letters rebuilt from the primers and the genome

Chains of the proteins cited; added tags and fusions are not shown. Residues count along the entry.
UniProt P91943, 273-341: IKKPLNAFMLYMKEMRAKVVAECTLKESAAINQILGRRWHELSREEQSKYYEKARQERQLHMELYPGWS

Sequence	binding result [1]	binding result [2]
AACCGGATGAAAAGGGAATTCGGGGCCACA (double strand) [WH oligo (Tig1 WGAWAW + r-Helper)]	binds	
AAGGAAGATCAAAGGGGGTAGCCGCCAGTA (double strand) [TH oligo (classic HMG + Helper)]	binds	
AAGGCCTCGACCCTTGGGTATAATAACGTA (double strand) [SS oligo (HMG and Helper sites mutated from TH)]	no binding	
AGCGATACGTTCGTTAGTTCGGAATAGAAAGAACTTGGGAAAATATTTAAAAATAAATAGCGACAGCCTGCAGGGGCCCAAGAAATGTGTTCCAGAAATAAGCAATACTATATTTTGGGAAAATGCATGTGTGACCCATTTGGGGGAGACGTCTTCTGTGGGGCCCTGAAATCGAAAGTTACATGTCGTCAAGTCCATGGGACTTATCAACCTAAACCGGATGAAAAGGGAATTCGGGGCCACATACATTAGTCTAATTGTTGTCAAAAAAAAAAATATACAAAAAATACAAGTGGGCAGTGAGCTTC (double strand) [Tig intron footprint probe]		binds

— paper PMC4140642
